Test results reported in paper PMC4825978.
No constants are given. Whether binding was seen depends on the method and setting. Tags and fused reporters may be left off the sequences shown.

By UniProt entry, the sequences of proteins in these tests, tags left out.
UniProt P29555: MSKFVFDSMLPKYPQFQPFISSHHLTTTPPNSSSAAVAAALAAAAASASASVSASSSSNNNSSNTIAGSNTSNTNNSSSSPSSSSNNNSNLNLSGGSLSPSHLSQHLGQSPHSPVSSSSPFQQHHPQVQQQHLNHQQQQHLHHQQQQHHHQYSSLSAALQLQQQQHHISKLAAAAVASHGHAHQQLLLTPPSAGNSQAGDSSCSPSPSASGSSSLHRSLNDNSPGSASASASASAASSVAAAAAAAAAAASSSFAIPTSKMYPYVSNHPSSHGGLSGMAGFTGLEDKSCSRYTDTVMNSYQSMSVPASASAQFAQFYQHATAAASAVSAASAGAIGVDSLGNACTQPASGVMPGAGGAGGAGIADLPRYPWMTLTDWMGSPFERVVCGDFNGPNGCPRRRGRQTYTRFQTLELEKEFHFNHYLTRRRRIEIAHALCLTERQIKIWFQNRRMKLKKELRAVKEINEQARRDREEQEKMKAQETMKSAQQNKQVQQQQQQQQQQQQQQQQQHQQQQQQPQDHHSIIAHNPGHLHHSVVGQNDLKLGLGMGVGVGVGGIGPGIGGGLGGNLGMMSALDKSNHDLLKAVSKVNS

Target: T1, his-Hth (Homothorax) (Drosophila) (UniProt O46339)
T1 sequence: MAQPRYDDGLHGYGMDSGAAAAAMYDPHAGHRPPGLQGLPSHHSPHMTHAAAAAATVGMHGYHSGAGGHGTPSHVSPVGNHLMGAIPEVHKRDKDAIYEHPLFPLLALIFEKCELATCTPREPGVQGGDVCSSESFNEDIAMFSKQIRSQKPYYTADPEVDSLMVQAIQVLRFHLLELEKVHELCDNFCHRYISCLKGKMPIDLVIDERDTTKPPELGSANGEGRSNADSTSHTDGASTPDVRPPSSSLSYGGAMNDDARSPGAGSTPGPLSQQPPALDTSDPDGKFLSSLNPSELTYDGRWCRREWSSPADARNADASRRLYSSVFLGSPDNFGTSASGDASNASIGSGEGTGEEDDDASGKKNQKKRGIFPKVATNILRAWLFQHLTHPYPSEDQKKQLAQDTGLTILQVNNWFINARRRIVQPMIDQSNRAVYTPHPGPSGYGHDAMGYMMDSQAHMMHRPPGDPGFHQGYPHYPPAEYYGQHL
Assay: condition: 200 nM Hth; Abd-A 37.5 nM to 300 nM; on the DCRE DNA probe; native gel or EMSA; complex formation on the radiolabelled DCRE full-length DNA probe (0.36 uM), native polyacrylamide gel; Hox protein titrated 37.5 nM to 300 nM with a fixed amount of Exd/Hth heterodimer (25 or 75 nM), DNA-binding deficient heterodimer (200 nM), Exd alone or Hth alone (200 nM); both purified

- binding: no binding
Substance: His-tagged Abd-A (Abdominal-A) (from UniProt P29555 1-590)
